These are yes or no findings as the source states them, for the method shown. Some entries that bind do so weakly or less than the wild type.
What was measured:
[1] = target: T1, endogenous Siglec-15 on leukaemic cell lines (human) (UniProt Q6ZMC9); test: FACS surface staining of leukaemic cell lines
T1 sequence (looked up): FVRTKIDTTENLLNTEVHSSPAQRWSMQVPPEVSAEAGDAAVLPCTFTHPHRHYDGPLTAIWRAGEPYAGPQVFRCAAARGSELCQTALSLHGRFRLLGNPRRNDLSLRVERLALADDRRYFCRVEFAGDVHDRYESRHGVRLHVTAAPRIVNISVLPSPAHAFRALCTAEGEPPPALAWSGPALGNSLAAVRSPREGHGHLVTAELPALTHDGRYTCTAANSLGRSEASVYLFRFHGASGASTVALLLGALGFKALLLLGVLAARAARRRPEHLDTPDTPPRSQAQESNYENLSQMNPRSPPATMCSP

[2] = target: T2, HA-tagged Siglec-15 extracellular domains in pDisplay construct (PDGFR transmembrane domain) on CHO cells (human) (UniProt Q6ZMC9+P09619); test: flow cytometry on CHO-pDisplay Siglec-15 cells
[3] = target: T1, endogenous Siglec-15 on leukaemic cell lines (human); test: FACS surface staining of K562 cells (endocytosis assay)
[4] = target: T2, HA-tagged Siglec-15 extracellular domains in pDisplay construct (PDGFR transmembrane domain) on CHO cells (human); test: FACS on CHO-pDisplay Siglec-15 cells, mouse IgG1 format
[5] = target: T2, HA-tagged Siglec-15 extracellular domains in pDisplay construct (PDGFR transmembrane domain) on CHO cells (human); test: FACS surface staining over time at 37 C on CHO-pDisplay Siglec-15 cells

Measured: binding

B1: A9E8 monoclonal antibody (mouse IgG1 format) (antibody, V domains shown)
VH: QLQLQESGPGLVKPSETLSLTCAVSGASISNWWSWVRQPPGKGLEWIGEVHHSGVTTYKPSLKSRVTISVDNSKNQLSLKLTSVTAADTAVYYCAREFADDAFDIWGRGTMVTVSS
VL: SSELTQDPAVSVALGQTVRITCRGDSLRKYYASWYQQKPRQAPQLVIYHKNNRASGIPDRFSGSISGNTASLTITGAQAEDEAAYFCNSRDTSGNYLVFGGGTKVTVLG
notes: VH and VL from the phage scFv were cloned into a mouse IgG1 backbone and expressed as complete mouse IgG1; also called A9E8 antibody
binds: all assays above
